Data on one substance can be found in publication PMC7291584.

Sequences of proteins named here, by UniProt entry; tags and fusion partners are left off.
UniProt Q14676: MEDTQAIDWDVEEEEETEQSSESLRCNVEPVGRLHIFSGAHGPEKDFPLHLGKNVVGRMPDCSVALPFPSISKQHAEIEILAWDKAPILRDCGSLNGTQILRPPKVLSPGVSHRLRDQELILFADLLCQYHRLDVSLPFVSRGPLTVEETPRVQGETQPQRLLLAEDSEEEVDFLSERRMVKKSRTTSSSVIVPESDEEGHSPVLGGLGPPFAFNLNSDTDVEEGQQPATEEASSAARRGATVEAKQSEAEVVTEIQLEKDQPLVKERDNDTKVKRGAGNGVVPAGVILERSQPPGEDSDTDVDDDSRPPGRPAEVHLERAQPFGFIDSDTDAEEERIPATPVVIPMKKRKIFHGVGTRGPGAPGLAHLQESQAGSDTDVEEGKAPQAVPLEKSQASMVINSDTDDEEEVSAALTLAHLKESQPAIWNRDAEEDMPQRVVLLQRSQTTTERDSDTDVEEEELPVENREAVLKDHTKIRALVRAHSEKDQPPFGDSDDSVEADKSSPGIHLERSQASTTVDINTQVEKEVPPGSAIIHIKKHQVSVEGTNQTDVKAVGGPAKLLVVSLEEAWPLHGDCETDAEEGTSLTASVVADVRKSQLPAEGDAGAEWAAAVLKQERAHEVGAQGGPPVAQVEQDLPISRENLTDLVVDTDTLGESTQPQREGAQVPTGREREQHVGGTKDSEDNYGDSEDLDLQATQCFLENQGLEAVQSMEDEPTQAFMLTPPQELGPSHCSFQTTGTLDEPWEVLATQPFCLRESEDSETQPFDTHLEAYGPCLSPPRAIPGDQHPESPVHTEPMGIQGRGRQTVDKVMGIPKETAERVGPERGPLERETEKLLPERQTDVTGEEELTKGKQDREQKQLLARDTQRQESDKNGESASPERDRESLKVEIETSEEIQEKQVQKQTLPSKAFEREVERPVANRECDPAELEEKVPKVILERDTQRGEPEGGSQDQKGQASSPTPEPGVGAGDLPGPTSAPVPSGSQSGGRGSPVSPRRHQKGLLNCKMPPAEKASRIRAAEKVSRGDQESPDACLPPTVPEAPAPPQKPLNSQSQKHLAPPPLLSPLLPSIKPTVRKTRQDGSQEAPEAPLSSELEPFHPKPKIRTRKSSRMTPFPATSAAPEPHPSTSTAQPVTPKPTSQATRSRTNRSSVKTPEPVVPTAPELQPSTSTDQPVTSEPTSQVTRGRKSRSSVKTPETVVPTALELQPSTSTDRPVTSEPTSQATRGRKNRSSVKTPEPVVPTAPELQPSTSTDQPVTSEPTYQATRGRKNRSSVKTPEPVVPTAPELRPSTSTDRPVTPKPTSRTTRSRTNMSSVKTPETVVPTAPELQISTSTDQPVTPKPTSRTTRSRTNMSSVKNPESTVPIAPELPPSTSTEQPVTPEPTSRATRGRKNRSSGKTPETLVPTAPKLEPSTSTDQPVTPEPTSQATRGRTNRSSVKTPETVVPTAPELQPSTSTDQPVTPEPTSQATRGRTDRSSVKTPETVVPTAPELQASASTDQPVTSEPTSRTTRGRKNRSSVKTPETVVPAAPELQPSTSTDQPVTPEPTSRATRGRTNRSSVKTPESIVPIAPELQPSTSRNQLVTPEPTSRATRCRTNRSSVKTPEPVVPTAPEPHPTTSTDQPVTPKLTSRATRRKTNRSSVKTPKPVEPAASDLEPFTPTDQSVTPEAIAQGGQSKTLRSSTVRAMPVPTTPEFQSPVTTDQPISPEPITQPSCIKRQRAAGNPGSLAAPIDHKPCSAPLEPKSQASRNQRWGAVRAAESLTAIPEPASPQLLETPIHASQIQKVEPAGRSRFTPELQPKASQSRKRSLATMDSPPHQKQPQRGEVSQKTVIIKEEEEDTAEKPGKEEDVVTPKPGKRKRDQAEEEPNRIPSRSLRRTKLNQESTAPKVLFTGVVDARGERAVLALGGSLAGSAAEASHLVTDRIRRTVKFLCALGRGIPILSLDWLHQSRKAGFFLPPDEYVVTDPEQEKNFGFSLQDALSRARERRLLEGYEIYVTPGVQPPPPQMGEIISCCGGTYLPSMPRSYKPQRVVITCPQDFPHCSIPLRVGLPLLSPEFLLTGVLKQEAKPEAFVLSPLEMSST

Experiment [1] concerns the target T1, Inhibitor of differentiation 4 (ID4) (human (endogenous in HCC70, MDA-MB-468, HCC1954, OVKATE and patient-derived xenografts)) (UniProt P47928).
T1 sequence: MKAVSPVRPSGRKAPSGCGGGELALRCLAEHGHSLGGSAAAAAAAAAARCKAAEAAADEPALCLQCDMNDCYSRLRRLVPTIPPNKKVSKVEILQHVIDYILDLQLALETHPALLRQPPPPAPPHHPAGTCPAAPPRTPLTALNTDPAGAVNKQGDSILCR
Description: proximity ligation; Duolink PLA with mouse/rabbit probes on fixed cells (MDA-MB-468, HCC70, OVKATE), confocal imaging, dots per cell; controls ID4:V5, ID4:FLAG and siMDC1.

The target in experiment [2] is T1, Inhibitor of differentiation 4 (ID4) (human (endogenous in HCC70, MDA-MB-468, HCC1954, OVKATE and patient-derived xenografts)). Description: co-IP; MDA-MB-468 cells prepared using the RIME protocol (cross-linked); IP with anti-ID4 or anti-MDC1 antibodies on Protein A/G magnetic beads against IgG; western blotting with independent monoclonal MDC1 or ID4 antibody. (In general: In western blotting, separated proteins are transferred to a membrane and probed.)

These are yes or no findings as the source states them, for the method shown. In cells and extracts the contact can be indirect. Some entries that bind do so weakly or less than the wild type.

For “mediator of DNA damage checkpoint 1 (MDC1) (from UniProt Q14676 1-2089)”, the binding result in experiment [1] and in experiment [2] was “binds” each time.
